{"source": "the supplement of paper PMC6411743", "assay_in_all_cases": "NP40-soluble protein abundance relative to vehicle (solubility fold change) (ratio); higher = more soluble protein in presence of GTP", "key": {"ADAM10": {"molecular_target": "T1, ADAM10 (UniProt O14672)", "T1 sequence (whole entry)": "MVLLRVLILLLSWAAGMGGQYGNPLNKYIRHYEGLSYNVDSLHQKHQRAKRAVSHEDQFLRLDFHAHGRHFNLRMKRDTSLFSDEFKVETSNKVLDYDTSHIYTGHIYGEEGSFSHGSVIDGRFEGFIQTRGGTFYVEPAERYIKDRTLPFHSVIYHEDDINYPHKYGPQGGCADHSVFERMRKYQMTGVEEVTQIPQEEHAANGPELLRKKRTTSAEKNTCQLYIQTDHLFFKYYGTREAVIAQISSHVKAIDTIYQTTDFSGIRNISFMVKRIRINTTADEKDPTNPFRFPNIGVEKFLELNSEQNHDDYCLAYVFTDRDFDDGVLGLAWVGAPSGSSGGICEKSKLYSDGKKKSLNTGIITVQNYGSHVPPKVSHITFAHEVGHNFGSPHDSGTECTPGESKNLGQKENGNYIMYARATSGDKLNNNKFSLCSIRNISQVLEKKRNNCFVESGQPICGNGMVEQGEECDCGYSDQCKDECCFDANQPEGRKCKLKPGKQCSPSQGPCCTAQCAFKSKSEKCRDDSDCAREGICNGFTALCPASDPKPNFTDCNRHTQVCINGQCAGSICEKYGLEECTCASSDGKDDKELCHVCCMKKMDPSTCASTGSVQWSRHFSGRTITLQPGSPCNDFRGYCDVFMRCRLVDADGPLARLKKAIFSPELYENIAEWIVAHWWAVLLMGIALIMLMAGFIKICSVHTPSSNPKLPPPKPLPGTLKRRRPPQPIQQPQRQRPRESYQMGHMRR", "how_it_was_run": "(§1)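 Across three independent experiments, values are fold changes against the detergent-processed vehicle for each replicate, based on vsn-normalised intensities. The samples were Jurkat crude lysate treated with eight concentrations (0.1 to 10 mM) for 10 min at room temperature and then 3 min at 37 °C. Lysate was solubilised with 0.8% NP40 and benzonase, ultracentrifuged, and the supernatant analysed by TMT-labelled LC-MS/MS.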"}, "DOK2": {"molecular_target": "T2, DOK2 (UniProt O60496)", "T2 sequence (whole entry)": "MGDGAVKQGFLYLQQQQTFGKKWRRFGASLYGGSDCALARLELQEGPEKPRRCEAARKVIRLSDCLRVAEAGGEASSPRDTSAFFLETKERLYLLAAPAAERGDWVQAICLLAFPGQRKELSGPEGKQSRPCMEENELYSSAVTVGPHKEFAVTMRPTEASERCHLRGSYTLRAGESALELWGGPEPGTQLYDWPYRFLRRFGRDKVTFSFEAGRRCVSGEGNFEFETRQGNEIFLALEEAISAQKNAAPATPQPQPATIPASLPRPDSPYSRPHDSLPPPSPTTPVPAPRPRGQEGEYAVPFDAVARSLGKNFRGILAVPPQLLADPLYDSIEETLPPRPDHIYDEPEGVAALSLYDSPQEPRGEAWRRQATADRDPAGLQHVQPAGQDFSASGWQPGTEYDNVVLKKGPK", "how_it_was_run": "as §1"}, "[1]": {"molecular_target": "T3, M0R165 and related entries (UniProt Q9UBC2)", "T3 sequence (whole entry)": "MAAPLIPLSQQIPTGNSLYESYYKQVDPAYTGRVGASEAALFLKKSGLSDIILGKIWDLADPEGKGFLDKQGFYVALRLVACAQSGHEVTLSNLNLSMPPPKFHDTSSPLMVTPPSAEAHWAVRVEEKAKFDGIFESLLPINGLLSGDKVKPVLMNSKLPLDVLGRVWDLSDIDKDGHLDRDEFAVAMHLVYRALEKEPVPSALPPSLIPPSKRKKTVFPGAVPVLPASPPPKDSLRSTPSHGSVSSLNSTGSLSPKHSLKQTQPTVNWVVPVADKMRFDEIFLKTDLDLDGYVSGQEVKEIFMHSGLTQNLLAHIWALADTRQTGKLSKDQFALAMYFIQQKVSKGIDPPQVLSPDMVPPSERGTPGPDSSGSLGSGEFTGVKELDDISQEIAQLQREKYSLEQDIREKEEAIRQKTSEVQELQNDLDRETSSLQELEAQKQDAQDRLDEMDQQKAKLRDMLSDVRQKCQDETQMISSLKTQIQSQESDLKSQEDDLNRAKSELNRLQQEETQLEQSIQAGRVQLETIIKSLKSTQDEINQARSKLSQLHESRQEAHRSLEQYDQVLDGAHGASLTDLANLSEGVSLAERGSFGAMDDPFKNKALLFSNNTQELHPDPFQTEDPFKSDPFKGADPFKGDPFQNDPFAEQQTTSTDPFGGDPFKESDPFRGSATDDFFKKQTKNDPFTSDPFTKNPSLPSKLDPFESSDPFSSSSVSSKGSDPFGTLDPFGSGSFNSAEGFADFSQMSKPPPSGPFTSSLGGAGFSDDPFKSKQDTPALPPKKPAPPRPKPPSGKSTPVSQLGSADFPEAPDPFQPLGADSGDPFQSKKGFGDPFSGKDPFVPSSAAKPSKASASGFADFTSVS", "how_it_was_run": "as §1"}, "NVL": {"molecular_target": "T4, NVL (UniProt O15381)", "T4 sequence (whole entry)": "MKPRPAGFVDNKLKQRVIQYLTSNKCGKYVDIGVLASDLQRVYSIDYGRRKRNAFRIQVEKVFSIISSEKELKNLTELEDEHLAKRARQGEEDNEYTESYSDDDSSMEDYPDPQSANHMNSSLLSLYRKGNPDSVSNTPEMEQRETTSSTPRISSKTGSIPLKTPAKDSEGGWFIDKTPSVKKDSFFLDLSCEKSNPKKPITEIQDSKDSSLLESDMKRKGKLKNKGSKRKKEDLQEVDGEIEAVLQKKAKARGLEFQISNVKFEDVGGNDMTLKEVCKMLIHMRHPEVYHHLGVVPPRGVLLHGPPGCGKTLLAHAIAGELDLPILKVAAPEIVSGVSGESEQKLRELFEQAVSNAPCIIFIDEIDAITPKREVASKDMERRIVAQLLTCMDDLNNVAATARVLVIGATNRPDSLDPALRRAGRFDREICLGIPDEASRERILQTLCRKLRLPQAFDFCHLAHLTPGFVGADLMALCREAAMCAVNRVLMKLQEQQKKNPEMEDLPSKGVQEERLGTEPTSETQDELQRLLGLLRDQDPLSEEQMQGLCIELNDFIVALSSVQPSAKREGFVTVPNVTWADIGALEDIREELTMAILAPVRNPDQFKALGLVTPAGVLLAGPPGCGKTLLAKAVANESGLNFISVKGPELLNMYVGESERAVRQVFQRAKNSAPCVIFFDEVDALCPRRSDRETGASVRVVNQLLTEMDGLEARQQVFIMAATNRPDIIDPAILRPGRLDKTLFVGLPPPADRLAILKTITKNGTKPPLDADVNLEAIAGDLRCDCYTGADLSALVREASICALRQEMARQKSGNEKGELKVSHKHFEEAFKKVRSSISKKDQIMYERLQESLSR", "how_it_was_run": "as §1"}}, "note": "± gives the standard deviation of the averaged measurements. The list shows a part of the results."}
{"smiles": "Nc1nc2c(ncn2[C@@H]2O[C@H](COP(=O)(O)OP(=O)(O)OP(=O)(O)O)[C@@H](O)[C@H]2O)c(=O)[nH]1", "note": "[guanosine triphosphate]", "values": [{"measurement": "NP40-soluble protein abundance", "setting": "ADAM10; concentration: 0.1mM", "result": "1.04 ± 0.064"}, {"measurement": "NP40-soluble protein abundance", "setting": "ADAM10; concentration: 0.5mM", "result": "1 ± 0.067"}, {"measurement": "NP40-soluble protein abundance", "setting": "ADAM10; concentration: 1mM", "result": "1.04 ± 0.072"}, {"measurement": "NP40-soluble protein abundance", "setting": "ADAM10; concentration: 2mM", "result": "0.992 ± 0.052"}, {"measurement": "NP40-soluble protein abundance", "setting": "ADAM10; concentration: 4mM", "result": "1.01 ± 0.084"}, {"measurement": "NP40-soluble protein abundance", "setting": "ADAM10; concentration: 6mM", "result": "1 ± 0.068"}, {"measurement": "NP40-soluble protein abundance", "setting": "ADAM10; concentration: 8mM", "result": "1.03 ± 0.071"}, {"measurement": "NP40-soluble protein abundance", "setting": "ADAM10; concentration: 10mM", "result": "1 ± 0.06"}, {"measurement": "NP40-soluble protein abundance", "setting": "DOK2; concentration: 0.1mM", "result": "1.06 ± 0.072"}, {"measurement": "NP40-soluble protein abundance", "setting": "DOK2; concentration: 0.5mM", "result": "1.03 ± 0.051"}, {"measurement": "NP40-soluble protein abundance", "setting": "DOK2; concentration: 1mM", "result": "0.986 ± 0.033"}, {"measurement": "NP40-soluble protein abundance", "setting": "DOK2; concentration: 2mM", "result": "0.94 ± 0.032"}, {"measurement": "NP40-soluble protein abundance", "setting": "DOK2; concentration: 4mM", "result": "0.933 ± 0.046"}, {"measurement": "NP40-soluble protein abundance", "setting": "DOK2; concentration: 6mM", "result": "0.94 ± 0.048"}, {"measurement": "NP40-soluble protein abundance", "setting": "DOK2; concentration: 8mM", "result": "0.933 ± 0.014"}, {"measurement": "NP40-soluble protein abundance", "setting": "DOK2; concentration: 10mM", "result": "0.913 ± 0.038"}, {"measurement": "NP40-soluble protein abundance", "setting": "[1]; concentration: 0.1mM", "result": "0.922 ± 0.023"}, {"measurement": "NP40-soluble protein abundance", "setting": "[1]; concentration: 0.5mM", "result": "0.898 ± 0.068"}, {"measurement": "NP40-soluble protein abundance", "setting": "[1]; concentration: 1mM", "result": "0.967 ± 0.06"}, {"measurement": "NP40-soluble protein abundance", "setting": "[1]; concentration: 2mM", "result": "0.927 ± 0.1"}, {"measurement": "NP40-soluble protein abundance", "setting": "[1]; concentration: 4mM", "result": "0.918 ± 0.067"}, {"measurement": "NP40-soluble protein abundance", "setting": "[1]; concentration: 6mM", "result": "0.938 ± 0.085"}, {"measurement": "NP40-soluble protein abundance", "setting": "[1]; concentration: 8mM", "result": "0.947 ± 0.053"}, {"measurement": "NP40-soluble protein abundance", "setting": "[1]; concentration: 10mM", "result": "0.935 ± 0.08"}, {"measurement": "NP40-soluble protein abundance", "setting": "NVL; concentration: 0.1mM", "result": "1.137 ± 0.011"}, {"measurement": "NP40-soluble protein abundance", "setting": "NVL; concentration: 0.5mM", "result": "1.18 ± 0.096"}, {"measurement": "NP40-soluble protein abundance", "setting": "NVL; concentration: 1mM", "result": "1.25 ± 0.08"}, {"measurement": "NP40-soluble protein abundance", "setting": "NVL; concentration: 2mM", "result": "1.31 ± 0.058"}]}
